Reference: PMC8574053
No constants are given. Whether binding was seen depends on the method and setting. Binding seen in cells or lysates may run through a third protein. Some binding calls cover weakened binding; strength is not graded here.

The chains behind the UniProt entries cited, without tags or fusion partners.
UniProt P10275: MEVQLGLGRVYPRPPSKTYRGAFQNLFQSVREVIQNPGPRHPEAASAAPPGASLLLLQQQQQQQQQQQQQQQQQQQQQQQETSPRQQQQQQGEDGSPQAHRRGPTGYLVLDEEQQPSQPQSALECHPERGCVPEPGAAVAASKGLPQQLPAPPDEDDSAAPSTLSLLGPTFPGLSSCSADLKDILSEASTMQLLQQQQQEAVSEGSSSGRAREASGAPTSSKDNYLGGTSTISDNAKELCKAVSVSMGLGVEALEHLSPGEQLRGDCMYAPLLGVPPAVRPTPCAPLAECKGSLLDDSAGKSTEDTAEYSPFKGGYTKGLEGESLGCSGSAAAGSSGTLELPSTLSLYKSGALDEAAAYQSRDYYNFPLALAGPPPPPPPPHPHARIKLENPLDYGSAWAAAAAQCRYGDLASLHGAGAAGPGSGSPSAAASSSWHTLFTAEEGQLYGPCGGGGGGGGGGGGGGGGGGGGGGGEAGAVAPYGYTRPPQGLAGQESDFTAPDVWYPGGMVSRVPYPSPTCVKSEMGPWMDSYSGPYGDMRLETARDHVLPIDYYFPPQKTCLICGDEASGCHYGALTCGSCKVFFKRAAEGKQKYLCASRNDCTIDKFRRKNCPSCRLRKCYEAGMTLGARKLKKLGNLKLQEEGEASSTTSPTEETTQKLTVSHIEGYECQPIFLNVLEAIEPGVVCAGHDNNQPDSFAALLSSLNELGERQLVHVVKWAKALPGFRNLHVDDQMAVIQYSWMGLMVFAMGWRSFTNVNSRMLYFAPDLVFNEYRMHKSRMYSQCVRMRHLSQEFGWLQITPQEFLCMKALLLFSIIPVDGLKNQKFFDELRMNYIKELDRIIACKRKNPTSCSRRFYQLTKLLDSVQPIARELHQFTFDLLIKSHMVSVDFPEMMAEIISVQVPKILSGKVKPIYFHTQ

Target: androgen receptor (human (endogenous in LNCaP)) (UniProt P10275)
Assay: co-IP; endogenous proteins of LNCaP cells; cells treated with vehicle or GV1001 (10 uM) for 24 h; reciprocal immunoprecipitation and immunoblotting

Substance: NK3 Homeobox 1 (from UniProt Q99801 1-234)
- binding: binds
